Data on 60 molecules can be found in PubChem BioAssay AID2685 (National Center for Advancing Translational Sciences (NCATS), 2010).

The other results are listed elsewhere or left out. Further columns of the screen follow, without active or inactive calls. Compounds called inactive in the main read-out are mostly missing here. Words in brackets tell the shape of the fitted curve; partial curves, single points and poor fits give uncertain potencies.

This assay can be described thus: qHTS Assay for Lipid Storage Modulators in Drosophila S3 Cells.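 For cell number change: cells counted by Cell Tracker Red CMTPX staining in the red channel.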 Particulars: BODIPY lipid droplet fluorescence, 18-24 h; for cell number change: measured here: cell count max response, cells fed with added oleic acid. The gist of the method:
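Drosophila S3 cells got compounds at several concentrations plus oleic acid (400 uM solution). Laser-scanning cytometry with 488 nm excitation read lipid droplets at 500-530 nm and cells at 575-640 nm. Percent activity was relative to 20 uM Triacsin C.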
On the technique in general: In qHTS, concentration-response curves come from the screen itself.

Where [1] appears, read: measured here: lipid fluorescence (Fed channel) AC50, cells fed with added oleic acid.
Where [2] appears, read: measured here: cell number channel AC50, cells fed with added oleic acid.

As to `O=C(/C=C/c1ccccc1)OCc1cncs1`, the cell number change is 3.43%.

What is called AC50 is the concentration at which the activity in the assay is half-maximal. For the molecule `Cc1ccc2c(=O)cc(C(=O)NCCc3ccc(S(N)(=O)=O)cc3)oc2c1C`, the cell number change worked out at 2.1%. Also, the AC50 under setting [1] was 6.51 µM [rising, single point].

On to `Cc1cc(Nc2cccc([N+](=O)[O-])c2)n2c(nc3ccccc32)c1C#N`, for which the cell number change was -93%. Also, the AC50 under setting [2] was 29.1 µM [falling, single point].

Regarding `COC(=O)c1nnn(-c2nc(N3CCOCC3)nc(N3CCOCC3)n2)c1C`, the cell number change was found to be 12%. In addition, the AC50 under setting [2] was 0.164 µM [falling, full curve, poor fit].

Turning to `COc1ccc(C2C(C#N)=C(N)OC3=C2C(=O)CC(C)(C)C3)cc1` (stereo not given), the cell number change was determined as 30.3%. In addition, under setting [2], the AC50 is 0.00517 µM [rising, full curve, poor fit].

`CCOC(=O)C1CCCN(C(=O)Nc2ccccc2)C1` (stereo not given): the cell number change is -29.6%. Further, the half-maximal activity concentration (AC50) under setting [1] is 29.1 µM [falling, single point].

Consider `C=CCn1c(C)cc(-c2csc(NC(=O)CCc3nc4ccccc4c(=O)[nH]3)n2)c1C`, for which the AC50 under setting [2] is 0.326 µM [rising, full curve].

As for `CN(C(=O)c1ccnn1C)C1CCCN(Cc2ccccc2F)C1` (stereo not given), the cell number change amounted to 15.3%.

On to `COC(=O)N/N=C\c1cc(Br)ccc1OCc1ccccc1`, for which the AC50 under setting [1] is 25.9 µM [rising, partial curve].

Take `C/C(=N\NC(=O)c1cccc(Br)c1)c1cccnc1`: the cell number change was 26.2%. Moreover, under setting [1], the AC50 was 0.58 µM [falling, single point].

Take `Cc1c(NC(=O)c2cc(-c3ccc(Cl)c(Cl)c3)on2)c(=O)n(-c2ccccc2)n1C`: the cell number change is 27%. Also, the AC50 under setting [1] is 13 µM [rising, partial curve].

Consider `O=C(O)CN(c1ccccc1)C1SC(=O)NC1=O` (stereo not given), for which, under setting [1], the AC50 is 14.6 µM [falling, partial curve, poor fit].

`COc1ccc(C(C)(C)C)cc1NC(=O)c1ccc2c(c1)SC1=NS(=O)(=O)CCN12`: the cell number change was found to be 13.7%.

As to `O=C(Nc1ccccc1N1CCOCC1)C1(c2ccc(Cl)cc2)CCC1`, the cell number change is 123%. Under setting [2], the AC50 was 29.1 µM [rising, single point]. For the same molecule, the AC50 under setting [1] was 29.1 µM [rising, partial curve].

As for `COc1ccc(NC(C)=O)cc1NC(C)C(=O)Nc1cccc(S(=O)(=O)N2CCOCC2)c1` (stereo not given), the cell number change is -1.95%. For the same molecule, the AC50 under setting [1] is 4.11 µM [rising, single point].

For the molecule `COc1ccc(OC)c(NC(=O)CCN2CC(C)CC(C)C2)c1` (stereo not given), the cell number change turned out to be 4.74%. Under setting [1], the AC50 was 3.66 µM [rising, partial curve, poor fit].

With `CN1CCN(C(=S)NC(=O)c2ccc(S(=O)(=O)N3CCOCC3)cc2)CC1`, the AC50 under setting [1] is 29.1 µM [falling, single point].

Turning to `Cc1ccc(-n2c(SCC(=O)N/N=C/c3c(C)nn(-c4ccccc4)c3C)nc3ccccc3c2=O)cc1`, the cell number change was 5.12%. Besides, the half-maximal activity concentration (AC50) under setting [1] is 0.651 µM [rising, partial curve].

On to `CCCCC(OC(=O)CN1C(=O)COc2ccccc21)C(=O)NC1CCCCC1` (stereo not given), for which the cell number change is -1.28%. Besides, the concentration at half-maximal activity (AC50) under setting [1] is 0.116 µM [rising, single point].

Take `O=C(NCC1CCCCC1)c1ccc(F)cc1Cl`: the cell number change was -17.2%. Further, the AC50 under setting [1] is 0.13 µM [falling, full curve, poor fit].

As to `CC(=O)N1CC(C)Sc2ccc(S(=O)(=O)NCCc3cccc(C)c3)cc21` (stereo not given), the cell number change amounted to 13.4%. The AC50 under setting [1] is 29.1 µM [falling, single point].

Take `COc1ccc(C(O)c2nc3ccccc3s2)cc1` (stereo not given): the cell number change was 0.281%. Further, the AC50 under setting [1] is 0.116 µM [rising, full curve, poor fit].

Take `O=C(COC(=O)C1=Cc2ccccc2OC1)NCc1ccco1`: the cell number change is 14.2%. Besides, the AC50 under setting [1] is 0.206 µM [rising, full curve, poor fit].

Consider `Cc1nnc(SCC(=O)N/N=C/c2cn(-c3ccccc3)nc2-c2ccc(F)cc2)n1-c1ccccc1`, for which the cell number change was determined as 2.48%. Moreover, the AC50 under setting [1] was 2.06 µM [rising, full curve].

As for `CCN(CC)c1ccc2cc(C(=O)NCc3ccc(F)cc3)c(=N)oc2c1`, the cell number change is -21.4%. Also, the AC50 under setting [1] was 0.164 µM [rising, full curve].

Turning to `O=C(Sc1cccc2cccnc12)c1ccc(F)cc1`, the cell number change is -36.1%. In addition, the AC50 under setting [2] is 8.2 µM [falling, partial curve, poor fit]. Also, the AC50 under setting [1] is 8.2 µM [falling, partial curve].

In the case of `CCN(CC)c1ccc(NC(=O)c2ccco2)c(C)c1`, the cell number change stood at 22.1%. Besides, the AC50 under setting [1] is 29.1 µM [rising, single point].

Take `NNc1nc(Nc2ccccc2)nc(Nc2ccccc2)n1`: the cell number change was determined as 12.7%. In addition, under setting [2], the half-maximal activity concentration (AC50) is 0.0731 µM [rising, full curve]. In addition, under setting [1], the AC50 was 0.92 µM [rising, full curve, poor fit].

With `COC(=O)c1c(C)oc2ccc(N(C(=O)c3ccncc3)S(=O)(=O)c3ccc(C)cc3C)cc12`, the cell number change came out at 3.33%. For the same molecule, the AC50 under setting [2] is 6.51 µM [falling, single point]. Further, under setting [1], the AC50 was 0.82 µM [rising, partial curve].

Consider `COc1cc(C=O)ccc1Oc1cnccn1`, for which the cell number change stood at 26.8%.

Consider `O=C(O)c1cccc(COc2ccccc2Cl)c1`, for which the cell number change was -171%. Besides, the AC50 under setting [2] is 29.1 µM [falling, single point].

As to `Cc1ccc(NNc2c(C)nc3ccccc3nc2=O)cc1`, the cell number change is -14.9%. Also, the AC50 under setting [2] was 2.31 µM [falling, partial curve].

As for `COc1ccccc1C1CC(c2ccc(Cl)cc2)Nc2ncnn21` (stereo not given), the AC50 under setting [1] is 0.146 µM [rising, full curve, poor fit].

Take `CC(=O)Nc1cccc(NC(=O)Nc2cccc(Cl)c2C)c1`: the cell number change is 26.5%. For the same molecule, the AC50 under setting [1] is 0.00517 µM [rising, full curve, poor fit].

Regarding `COC(=O)CCC(=O)OC1(C)C(=O)C2=CN(C(CO)CO)C(c3ccc(OC)cc3)=CC2=C(Br)C1=O` (stereo not given), the cell number change was -22.5%. Besides, the AC50 under setting [1] is 0.0291 µM [falling, full curve].

Take `CCOc1ccc(C(C(=O)NC2CCCCC2)N(C(=O)c2csnn2)C2CC2)cc1` (stereo not given): the cell number change is 46.7%. Under setting [2], the AC50 is 20.6 µM [rising, single point].

On to `O=C(CN(C(=O)CCC(=O)Nc1ccccn1)c1cccc(F)c1)NCc1ccc2c(c1)OCO2`, for which the cell number change is -20%. In addition, under setting [1], the AC50 is 0.206 µM [rising, single point].

As to `CC1(C)CC2CC(C)(CN2C(=O)c2cc(-c3ccccc3O)on2)C1` (stereo not given), the cell number change is 23.2%. Moreover, the AC50 under setting [1] is 5.17 µM [rising, partial curve].

For the molecule `NS(=O)(=O)c1ccc(NC(=S)NC(=O)/C=C/c2ccco2)cc1`, the cell number change turned out to be 12.5%. Besides, the AC50 under setting [2] is 6.51 µM [rising, single point]. Besides, the AC50 under setting [1] was 0.58 µM [rising, full curve, poor fit].

As to `COc1ccccc1/C=N/NS(=O)(=O)c1ccccc1`, the cell number change was 17.3%. Besides, the AC50 under setting [1] was 0.461 µM [rising, full curve].

For `CCC(C(=O)OC(C)C)c1ccc2ccccc2c1` (stereo not given), the cell number change is -31.8%. Also, the AC50 under setting [2] was 4.61 µM [falling, single point]. Under setting [1], the AC50 is 0.103 µM [rising, single point].

Take `C=CCNC(=O)c1ccccc1NS(=O)(=O)c1ccc(OC)c(C(=O)N2CCOCC2)c1`: the cell number change turned out to be 17.9%. For the same molecule, under setting [1], the AC50 was 4.11 µM [rising, partial curve].

Regarding `Cc1cc(C(=O)Nc2ccc(Cl)c(S(=O)(=O)N3CCOCC3)c2)c2ccccc2n1`, the AC50 under setting [1] was 6.51 µM [falling, single point].

As for `CCc1c(C)nc(SCC(=O)N2CCN(c3ccccc3OC)CC2)[nH]c1=O`, the cell number change was -63.8%.

Consider `O=C(CCc1ccccc1)Nc1nn[nH]n1`, for which the cell number change was -6.08%. For the same molecule, the AC50 under setting [1] was 0.651 µM [falling, full curve, poor fit].

On to `CC(=O)c1ccc(Sc2ccccc2)cc1`, for which the AC50 under setting [1] was 6.51 µM [falling, single point].

In the case of `CCC(C(=O)OC)n1cnc2c(nnn2-c2ccc(C)cc2)c1=O` (stereo not given), the cell number change was determined as 17.3%. Under setting [1], the concentration at half-maximal activity (AC50) is 29.1 µM [rising, single point].

Consider `O=C(O)Cc1csc(NC(=O)CSc2nnnn2-c2ccc(O)cc2)n1`, for which the cell number change was -18.1%. In addition, under setting [1], the AC50 was 4.61 µM [falling, single point].

Take `CCn1cc(/C=C/C(=O)Nc2ccn(Cc3c(F)c(F)cc(F)c3F)n2)cn1`: the AC50 under setting [2] was 0.58 µM [rising, single point].

In the case of `CCOC(=O)Cc1csc(NC(=O)COc2ccc(OC)cc2)n1`, the cell number change was 0.737%.

For the molecule `COc1cc2c(c(OC)c1OC)CC(=O)N(C)CC2`, the cell number change is -22.3%. Under setting [2], the AC50 was 0.58 µM [falling, single point]. Also, under setting [1], the AC50 was 0.82 µM [rising, single point].

Take `O=C(N/N=C/c1ccc(OC(=O)c2ccccc2)c([N+](=O)[O-])c1)c1ccc(O)cc1`: the cell number change came out at 3.62%. For the same molecule, under setting [1], the AC50 is 0.326 µM [falling, partial curve, poor fit].

In the case of `COc1ccc(S(=O)(=O)N2CCN(C(=O)c3cc(C)on3)CC2)cc1`, the cell number change was found to be 5.7%. In addition, the AC50 under setting [2] is 0.00461 µM [falling, full curve, poor fit].

For the molecule `CC(=O)NC1(C(F)(F)F)NC(=O)N(CC(C)C)C1=O` (stereo not given), the cell number change is -80.5%. The AC50 under setting [2] was 18.4 µM [falling, partial curve]. Moreover, under setting [1], the AC50 was 5.17 µM [falling, partial curve].

As to `O=C1CN(c2nc(-c3cccnc3)nc3sc4c(c23)CCCC4)CCN1`, the cell number change amounted to 25.4%. The AC50 under setting [1] is 0.259 µM [rising, full curve, poor fit].

Regarding `Cc1ccc(S(=O)(=O)N2CCN(S(=O)(=O)N(C)C)CC2)c(C)c1`, the cell number change is 16.5%. Further, the half-maximal activity concentration (AC50) under setting [1] is 0.00461 µM [falling, full curve, poor fit].

On to `O=C(c1cnn2ccccc12)N1CCCc2ccccc21`, for which the cell number change amounted to 0.527%. Under setting [1], the concentration at half-maximal activity (AC50) is 29.1 µM [rising, single point].

With `CCN(CC(=O)NCc1cccs1)S(=O)(=O)c1cccc(C(C)=O)c1`, the cell number change is -36.1%. For the same molecule, the AC50 under setting [2] is 8.2 µM [falling, partial curve, poor fit]. Under setting [1], the AC50 was 6.51 µM [falling, partial curve].

`CCc1cc(Cn2nc(-c3ccccc3)cc2C(=O)NCc2cccc(C(F)(F)F)c2)on1`: the cell number change was -10.4%.

In the case of `O=C(NCC(c1cccnc1)N1CCN(c2ccccc2F)CC1)c1cccc(Cl)c1` (stereo not given), the cell number change is 282%. Also, the half-maximal activity concentration (AC50) under setting [2] was 18.4 µM [rising, partial curve, poor fit]. Also, under setting [1], the AC50 is 23.1 µM [rising, partial curve].
